Measured values reported in article PMC5144080.
No constants are given. Whether binding was seen depends on the method and setting. Binding seen in cells or lysates may run through a third protein. Some binding calls cover weakened binding; strength is not graded here.

The chains behind the UniProt entries cited, without tags or fusion partners.
UniProt Q9Y6K9: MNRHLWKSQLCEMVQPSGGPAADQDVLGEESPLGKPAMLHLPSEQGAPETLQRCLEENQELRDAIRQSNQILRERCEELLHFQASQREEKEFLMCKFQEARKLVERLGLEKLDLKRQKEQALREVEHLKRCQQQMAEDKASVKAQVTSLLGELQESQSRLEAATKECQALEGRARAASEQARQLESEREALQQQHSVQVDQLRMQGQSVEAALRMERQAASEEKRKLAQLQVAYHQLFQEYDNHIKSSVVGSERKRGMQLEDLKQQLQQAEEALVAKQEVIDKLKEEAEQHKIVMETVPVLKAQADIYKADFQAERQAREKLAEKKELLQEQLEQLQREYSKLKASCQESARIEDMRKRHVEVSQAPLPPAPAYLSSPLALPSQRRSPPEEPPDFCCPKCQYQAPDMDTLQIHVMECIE
UniProt P49841: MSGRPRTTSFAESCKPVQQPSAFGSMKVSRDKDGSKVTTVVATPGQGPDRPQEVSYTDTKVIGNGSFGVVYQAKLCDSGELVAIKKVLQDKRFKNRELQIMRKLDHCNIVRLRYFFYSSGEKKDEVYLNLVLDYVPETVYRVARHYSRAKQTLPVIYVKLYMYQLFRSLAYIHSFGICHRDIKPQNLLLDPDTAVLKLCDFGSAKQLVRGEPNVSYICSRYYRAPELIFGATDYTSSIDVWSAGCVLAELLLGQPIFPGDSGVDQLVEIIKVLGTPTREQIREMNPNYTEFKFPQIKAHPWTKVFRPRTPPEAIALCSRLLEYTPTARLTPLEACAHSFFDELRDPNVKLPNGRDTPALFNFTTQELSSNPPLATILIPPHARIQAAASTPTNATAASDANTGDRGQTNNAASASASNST

What was measured:
[1] = biological target: NEMO-TagRFP (human) (UniProt Q9Y6K9); assay: FRET or BRET; FLIM-FRET on a widefield FLIM set-up (Supplementary Figure 1b)
[2] = biological target: GST-fused NEMO, full length (human) (UniProt Q9Y6K9); assay: pull-down; GST-fused NEMO or its deletion mutants mixed with cell lysates containing GSK-3β; overnight incubation; GST-NEMO eluted from the resin; GSK-3β in the eluate detected by immune blotting; only the target purified
[3] = biological target: glycogen synthase kinase-3β (GSK-3β), endogenous (human (endogenous in HEK293)) (UniProt P49841); assay: co-IP; immune-precipitation of endogenous GSK-3β from lysates of HEK293 cells, untreated or stimulated with TNFα (10 ng/ml) for 30 min; immune complexes blotted for NEMO and GSK-3β
[4] = biological target: NF-κB Essential Modifier (NEMO/IKKγ), endogenous (human (endogenous in HEK293)) (UniProt Q9Y6K9); assay: co-IP; lysates immunoprecipitated with anti-NEMO and blotted with anti-NEMO, anti-IKKβ and anti-GSK-3β; cells pretreated for 2 h with SB216763 (1 μM) or not, then stimulated with TNFα (10 ng/ml) for 1 h
[5] = biological target: GFP-tagged wild-type NEMO (human) (UniProt Q9Y6K9); assay: co-IP; HEK293 cells transfected with GFP-tagged wild-type or S8, 17, 31A NEMO; anti-GFP immunoprecipitation (GFP Isolation Kit, Miltenyi); resting or TNFα-stimulated (10 ng/ml) cells; for p47, co-transfected with HA-tagged ubiquitin species; immunoblotting

For “GFP-GSK-3β (from UniProt P49841 1-420) (enzyme)”, the binding [1] was “binds”.
In the case of “GSK-3β in cell lysates (GST pull-down) (from UniProt P49841 1-420) (enzyme)”, the binding [2] is reported as “binds”.
In the case of “NF-κB Essential Modifier (NEMO/IKKγ), endogenous (from UniProt Q9Y6K9 1-419)”, the binding [3] is reported as “binds”.
For “glycogen synthase kinase-3β (GSK-3β), endogenous (from UniProt P49841 1-420) (enzyme)”, the binding [4] was “binds” and the binding [5] was “binds”.
